Read-outs that look alike come from different tables or passages of the source. Results are given in words; binding and its absence hold for the method and conditions named. In cells and extracts the contact can be indirect. Binding can be weak; no strength is given. For part of these data: Where a sequence is shown, tags or fusion partners need not be part of it.
Key:
[1] = molecular target: Synaptojanin 2 binding protein (SYNJ2BP), endogenous (mouse (endogenous in primary hippocampal neurons)) (UniProt Q9D6K5); experiment: proximity ligation
[2] = molecular target: T1, myc-tagged SYNJ2BP WT (shRNA-resistant), lentivirally overexpressed (rat) (UniProt Q9WVJ4); experiment: co-IP
T1 sequence: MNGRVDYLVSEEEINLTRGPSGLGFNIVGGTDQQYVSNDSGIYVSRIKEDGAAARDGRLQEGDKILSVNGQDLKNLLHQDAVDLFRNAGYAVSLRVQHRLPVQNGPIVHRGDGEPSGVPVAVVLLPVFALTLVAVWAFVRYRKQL

Protein sequences, listed by entry. Tags and fused reporters are not part of them.
UniProt Q9D6K5: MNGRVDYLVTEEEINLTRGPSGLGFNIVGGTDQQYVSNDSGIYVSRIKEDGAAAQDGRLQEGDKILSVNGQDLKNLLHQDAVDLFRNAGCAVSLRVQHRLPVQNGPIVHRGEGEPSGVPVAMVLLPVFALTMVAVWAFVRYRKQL

[3] = molecular target: T1, myc-tagged SYNJ2BP WT (shRNA-resistant), lentivirally overexpressed (rat); experiment: co-IP; remark: listed apart in the source

Measured: binding

Synaptojanin 2 (SYNJ2), endogenous (from UniProt Q9D2G5-6)
binds: all assays above
